Reference: article PMC10781586
These are yes or no findings as the source states them, for the method shown. Binding seen in cells or lysates may run through a third protein. Some entries that bind do so weakly or less than the wild type. Tags and fused reporters may be left off the sequences shown.

Chains of the proteins cited; added tags and fusions are not shown.
UniProt P22227: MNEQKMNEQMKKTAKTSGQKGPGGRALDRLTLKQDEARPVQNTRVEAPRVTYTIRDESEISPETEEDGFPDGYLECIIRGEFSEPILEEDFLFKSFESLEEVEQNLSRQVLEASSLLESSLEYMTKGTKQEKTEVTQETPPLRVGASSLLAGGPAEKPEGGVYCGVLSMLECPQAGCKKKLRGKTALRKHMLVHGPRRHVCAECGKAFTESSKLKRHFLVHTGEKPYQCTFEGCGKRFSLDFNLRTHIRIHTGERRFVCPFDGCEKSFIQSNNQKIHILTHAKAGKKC

Assays:
Experiment in all cases: co-IP; HA-RNF12 immunoprecipitated with anti-HA magnetic beads from 1 mg lysate of Rlim-/y; Zfp42-/- mESCs co-expressing FLAG-REX1, cells treated with MG132 for 2 h; overnight at 4°C; washes with lysis buffer with 500 mM NaCl; blot for FLAG-REX1
[1] = biological target: T1, HA-tagged mouse RNF12 WT (1-600) (mouse) (UniProt Q9WTV7)
T1 sequence: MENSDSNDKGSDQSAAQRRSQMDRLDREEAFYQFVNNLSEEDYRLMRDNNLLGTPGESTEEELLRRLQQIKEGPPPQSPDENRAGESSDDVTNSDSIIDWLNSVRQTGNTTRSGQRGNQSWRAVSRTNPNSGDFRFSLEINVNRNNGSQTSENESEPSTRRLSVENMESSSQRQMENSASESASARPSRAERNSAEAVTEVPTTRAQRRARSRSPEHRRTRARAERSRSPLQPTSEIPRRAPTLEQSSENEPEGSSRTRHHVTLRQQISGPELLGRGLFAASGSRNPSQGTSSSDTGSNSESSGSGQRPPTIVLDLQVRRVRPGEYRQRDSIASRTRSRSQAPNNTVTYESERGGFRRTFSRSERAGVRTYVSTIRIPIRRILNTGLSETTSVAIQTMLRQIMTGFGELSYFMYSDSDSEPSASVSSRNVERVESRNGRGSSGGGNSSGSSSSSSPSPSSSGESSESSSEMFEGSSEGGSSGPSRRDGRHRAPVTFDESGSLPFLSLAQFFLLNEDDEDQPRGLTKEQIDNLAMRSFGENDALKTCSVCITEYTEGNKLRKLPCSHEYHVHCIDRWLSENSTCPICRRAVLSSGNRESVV

[2] = biological target: T2, HA-tagged mouse RNF12 ΔN (Δ1-206) (mouse) (UniProt Q9WTV7)
T2 sequence: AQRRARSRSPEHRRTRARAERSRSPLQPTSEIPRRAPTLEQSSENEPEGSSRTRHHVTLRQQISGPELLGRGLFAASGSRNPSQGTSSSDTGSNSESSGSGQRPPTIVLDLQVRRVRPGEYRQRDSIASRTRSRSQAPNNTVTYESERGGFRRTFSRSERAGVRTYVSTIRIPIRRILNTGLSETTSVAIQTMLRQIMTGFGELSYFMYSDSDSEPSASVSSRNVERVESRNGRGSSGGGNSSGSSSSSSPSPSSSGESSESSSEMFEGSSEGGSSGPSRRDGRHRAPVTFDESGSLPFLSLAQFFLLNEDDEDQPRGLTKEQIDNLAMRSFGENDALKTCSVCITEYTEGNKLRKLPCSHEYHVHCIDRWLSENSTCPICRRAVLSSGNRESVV

[3] = biological target: T3, HA-tagged mouse RNF12 ΔBR2 (Δ349-381) (mouse) (UniProt Q9WTV7)
T3 sequence: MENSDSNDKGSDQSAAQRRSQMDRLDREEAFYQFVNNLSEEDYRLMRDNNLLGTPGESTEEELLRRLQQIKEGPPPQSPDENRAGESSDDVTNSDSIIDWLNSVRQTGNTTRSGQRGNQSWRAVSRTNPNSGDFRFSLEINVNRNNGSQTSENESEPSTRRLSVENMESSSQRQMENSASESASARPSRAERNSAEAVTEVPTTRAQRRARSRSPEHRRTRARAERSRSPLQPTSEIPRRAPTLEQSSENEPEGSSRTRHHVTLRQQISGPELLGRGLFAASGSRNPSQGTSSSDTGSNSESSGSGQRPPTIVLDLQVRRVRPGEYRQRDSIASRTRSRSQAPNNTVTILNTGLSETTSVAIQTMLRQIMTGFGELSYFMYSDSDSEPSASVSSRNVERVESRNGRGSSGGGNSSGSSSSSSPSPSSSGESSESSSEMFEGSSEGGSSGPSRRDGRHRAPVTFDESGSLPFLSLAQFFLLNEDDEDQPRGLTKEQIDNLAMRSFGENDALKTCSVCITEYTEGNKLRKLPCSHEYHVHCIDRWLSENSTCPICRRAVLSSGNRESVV

Measured: binding

FLAG-REX1 (3XFLAG mouse Rex1) (from UniProt P22227 1-288)
binds: [1] | [2] | [3]
